PubChem BioAssay AID504774 | Drosophila RNAi Screening Center | 2011

- Assay: 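Fly genes whose loss alters survival after alkylation damage to DNA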 (primary screen)
- System: Drosophila Kc167 cells
- Reagents: long dsRNA against Drosophila genes, about 0.25 µg dsRNA per well
- Timing: about 6 days: 3 days knock-down, then 3 days with or without MMS
- Challenge: methyl methanesulphonate 0.004% (w/v) for 3 days after knock-down
- Detection: 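Viability in wells given MMS, read as ATP luminescence, normalised by quantiles plate by plate and averaged across replicates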
- Scale: mean viability with MMS and viability with MMS: higher = more surviving cells after MMS
The screen tested about 23,000 reagents; shown is a random part of those with a known target gene and a result. 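Values are quantile-normalised luminescence on an arbitrary scale; higher means more cells surviving MMS.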 Reagents against one gene are numbered here.

gene knocked down,reagent,mean viability with MMS,"viability with MMS, replicate 1","viability with MMS, replicate 2"
CG7912,1,3.56e6,4.05e6,4.02e6
Tmem131,1,3.75e6,4.29e6,4.19e6
sowah,1,3.30e6,3.77e6,3.70e6
sowah,2,3.52e6,4.00e6,3.99e6
CG13437,1,3.61e6,4.04e6,4.12e6
Cdlc2,1,3.46e6,3.73e6,4.05e6
DhpD,1,3.48e6,3.90e6,3.98e6
Cht2,1,3.57e6,3.95e6,4.14e6
RtGEF,1,3.40e6,3.80e6,3.86e6
RtGEF,2,3.66e6,4.12e6,4.12e6
mib2,1,3.42e6,3.86e6,3.84e6
CG14687,1,3.54e6,3.97e6,4.05e6
Ir62a,1,3.51e6,3.97e6,3.98e6

Continued, starting with the last 4 of the part before.
gene knocked down,reagent,mean viability with MMS,"viability with MMS, replicate 1","viability with MMS, replicate 2"
RtGEF,2,3.66e6,4.12e6,4.12e6
mib2,1,3.42e6,3.86e6,3.84e6
CG14687,1,3.54e6,3.97e6,4.05e6
Ir62a,1,3.51e6,3.97e6,3.98e6
CG17321,1,3.71e6,4.15e6,4.20e6
ATP8B,1,3.50e6,4.02e6,3.95e6
Osi9,1,1.82e6,4.00e6,3.98e6
mRRF1,1,3.48e6,3.88e6,4.00e6
Sprn,1,3.59e6,4.08e6,4.03e6
mtt,1,3.15e6,3.53e6,3.53e6
mtt,2,3.28e6,3.74e6,3.65e6
mtt,3,3.45e6,3.98e6,3.87e6
mtt,4,3.50e6,4.03e6,3.93e6
Grx3,1,3.57e6,4.06e6,4.05e6
CG14380,1,3.53e6,3.88e6,4.15e6
jagn,1,3.60e6,3.92e6,4.29e6
CG8611,1,3.74e6,4.27e6,4.26e6
CG10479,1,3.52e6,3.96e6,4.03e6
CG15118,1,3.60e6,4.10e6,4.08e6
